Assay results reported in PMC10776854.
Changes are numbered by the printed parent chain. Results are given in words; binding and its absence hold for the method and conditions named. Binding seen in cells or lysates may run through a third protein. Some binding calls cover weakened binding; strength is not graded here. Sequences can lack the tags named with a protein.

The chains behind the UniProt entries cited, without tags or fusion partners.
UniProt Q14534: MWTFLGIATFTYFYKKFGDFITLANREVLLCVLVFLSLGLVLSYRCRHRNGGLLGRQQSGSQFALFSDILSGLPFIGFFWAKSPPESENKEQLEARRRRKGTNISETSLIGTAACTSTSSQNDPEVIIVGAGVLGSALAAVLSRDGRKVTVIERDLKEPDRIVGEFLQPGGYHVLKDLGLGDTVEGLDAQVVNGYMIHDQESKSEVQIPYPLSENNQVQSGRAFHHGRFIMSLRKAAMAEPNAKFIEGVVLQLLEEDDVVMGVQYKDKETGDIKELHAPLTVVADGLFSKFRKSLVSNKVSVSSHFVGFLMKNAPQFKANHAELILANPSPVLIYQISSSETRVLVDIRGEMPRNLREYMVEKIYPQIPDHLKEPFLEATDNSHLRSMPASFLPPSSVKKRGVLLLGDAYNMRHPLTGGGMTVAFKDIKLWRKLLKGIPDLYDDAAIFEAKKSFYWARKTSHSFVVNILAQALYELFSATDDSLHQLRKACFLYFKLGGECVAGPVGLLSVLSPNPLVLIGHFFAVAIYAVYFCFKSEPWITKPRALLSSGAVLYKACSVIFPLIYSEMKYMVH

Legend:
Test in all cases: co-IP; anti-DYKDDDDK magnetic agarose IP of MARCH6-FLAG variants from 1% digitonin lysates of K562 cells still expressing endogenous MARCH6; 4 °C, 2 h; 30 mM Tris pH 8.0, 200 mM NaCl, 2 mM DTT, washes with 0.1% digitonin; Western blot for endogenous SQLE; eight biological replicates
MARCH6-FLAG WT (human) = molecular target: T1, MARCH6-FLAG WT (human) (UniProt O60337)
T1 sequence: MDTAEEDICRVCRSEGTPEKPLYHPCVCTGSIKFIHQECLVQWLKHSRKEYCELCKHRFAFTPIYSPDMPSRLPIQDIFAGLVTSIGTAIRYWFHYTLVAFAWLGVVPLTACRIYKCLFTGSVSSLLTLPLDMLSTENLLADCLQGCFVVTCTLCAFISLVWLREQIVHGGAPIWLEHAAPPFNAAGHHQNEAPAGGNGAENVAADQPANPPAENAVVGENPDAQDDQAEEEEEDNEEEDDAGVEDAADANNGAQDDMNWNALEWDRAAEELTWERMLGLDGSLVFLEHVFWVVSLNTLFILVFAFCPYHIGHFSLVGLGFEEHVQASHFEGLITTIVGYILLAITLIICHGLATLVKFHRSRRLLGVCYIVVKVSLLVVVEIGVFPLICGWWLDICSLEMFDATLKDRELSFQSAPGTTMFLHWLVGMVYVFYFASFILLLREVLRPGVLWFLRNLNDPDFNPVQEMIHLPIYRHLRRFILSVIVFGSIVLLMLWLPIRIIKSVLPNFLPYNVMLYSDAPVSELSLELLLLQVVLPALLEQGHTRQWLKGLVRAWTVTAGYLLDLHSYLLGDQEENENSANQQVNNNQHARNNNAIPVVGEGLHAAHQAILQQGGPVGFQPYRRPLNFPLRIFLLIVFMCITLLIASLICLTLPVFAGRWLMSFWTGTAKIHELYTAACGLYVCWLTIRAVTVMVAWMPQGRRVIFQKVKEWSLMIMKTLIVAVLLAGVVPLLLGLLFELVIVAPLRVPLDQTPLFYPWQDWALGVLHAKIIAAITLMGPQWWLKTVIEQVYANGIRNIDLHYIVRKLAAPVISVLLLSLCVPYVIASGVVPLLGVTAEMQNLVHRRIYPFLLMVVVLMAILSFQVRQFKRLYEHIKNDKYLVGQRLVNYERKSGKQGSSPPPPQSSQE

[1] = molecular target: T2, MARCH6^L140A/L747A-FLAG (human) (UniProt O60337)
T2 sequence: T1 sequence with L140A, L747A

MARCH6^Y92V-FLAG (human) = molecular target: T3, MARCH6^Y92V-FLAG (human) (UniProt O60337)
T3 sequence: T1 sequence with Y92V

[2] = molecular target: T4, MARCH6^Y92V/Y96V-FLAG (human) (UniProt O60337)
T4 sequence: T1 sequence with Y92V, Y96V

MARCH6^Y96V-FLAG (human) = molecular target: T5, MARCH6^Y96V-FLAG (human) (UniProt O60337)
T5 sequence: T1 sequence with Y96V

- binding (MARCH6-FLAG WT (human)): binds
- binding [1]: binds
- binding (MARCH6^Y92V-FLAG (human)): binds
- binding [2]: binds
- binding (MARCH6^Y96V-FLAG (human)): binds
Substance: SQLE (from UniProt Q14534 1-574)
